Reference: patent US20150337031A1 (CELYAD S A, published 2015)
These are yes or no findings as the source states them, for the method shown. Some results given as binding are weak or reduced against the parent protein; the word gives no strength. Sequences can lack the tags named with a protein.

Amino acid sequences for entries named in this document (tags omitted). A change or cut given only in a name is not applied to a line headed by its entry.
UniProt Q06413: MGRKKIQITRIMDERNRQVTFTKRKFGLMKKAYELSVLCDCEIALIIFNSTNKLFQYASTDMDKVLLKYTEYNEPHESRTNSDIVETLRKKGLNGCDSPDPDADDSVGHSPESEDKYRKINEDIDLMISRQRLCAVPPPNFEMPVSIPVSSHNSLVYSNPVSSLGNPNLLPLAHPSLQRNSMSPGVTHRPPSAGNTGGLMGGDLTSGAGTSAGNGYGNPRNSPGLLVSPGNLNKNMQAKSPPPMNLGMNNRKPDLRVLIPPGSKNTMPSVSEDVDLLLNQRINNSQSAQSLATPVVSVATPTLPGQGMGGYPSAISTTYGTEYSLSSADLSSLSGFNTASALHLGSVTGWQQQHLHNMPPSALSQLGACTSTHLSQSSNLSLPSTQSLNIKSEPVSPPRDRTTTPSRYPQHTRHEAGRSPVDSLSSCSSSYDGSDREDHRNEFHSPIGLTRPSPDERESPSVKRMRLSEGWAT

Experiments:
[1] = target: MEF2C in nuclei of BMMSCs and Cardiac lineage committed cells; experiment: immunofluorescence, mean nuclear fluorescence intensity of single nuclei
[2] = target: MEF2C (Myocyte-specific enhancer factor 2C) expressed from a MEF2C coding vector in transfected cells (human) (UniProt Q06413); experiment: Western blot of extracts of transfected cells (figure legend)
[3] = target: MEF2C in nuclei of BMMSCs and Cardiac lineage committed cells; experiment: immunofluorescence, histogram of mean nuclear fluorescence intensity in intervals of 7.5 units
[4] = target: Flag-tagged full length MEF2C protein expressed in transfected HeLa cells (Origene MEF2C (NM-002397) Human cDNA ORF Clone) (human) (UniProt Q06413); experiment: immunofluorescence on transfected HeLa cells
[5] = target: MEF2C in nuclei of BMMSCs and Cardiac lineage committed cells; experiment: immunofluorescence on fixed, permeabilised cells, staining conditions of Example 2
[6] = target: MEF2C (Myocyte-specific enhancer factor 2C) expressed from a MEF2C coding vector in transfected cells (human) (UniProt Q06413); experiment: Western blot of extracts of transfected cells, antibody diluted 1:500
[7] = target: Flag-tagged full length MEF2C protein expressed in transfected HeLa cells (Origene MEF2C (NM-002397) Human cDNA ORF Clone) (human) (UniProt Q06413); experiment: immunofluorescence on HeLa cells transfected with Flag-tagged MEF2C, 3 mg/ml stock diluted 1:3000

Measured: binding

B1: anti-MEF2C monoclonal antibody produced by the hybridoma cell line deposited with BCCM/LMBP under Accession No. LMBP 9949CB (antibody, V domains shown)
VH: EVQLQQSGPELVKPGASVKISCKASAYSFTGYFMNWVKQSHGKSLEWIGRINPYNGNTFYNQNFKGKATLTVDRSSSTAHMQILSLTSEDSTVYYCGREGATGAMDYWGQGTSVTVLP
VL: DVVMTQTPLSLPVSLGDQASISCRSSQSLVHSNGDTYLHWYLQMPGQSPRLLIYKVSNRFSGVPDRFSGSGSGTDFTLKISRVEAEDLGVYFCSQSTHVPPTFGGGTKLEIK
notes: IgG from a mouse hybridoma (detected with anti-mouse IgG); also called anti-MEF2C mAb; α MEF2C
binds: all assays above
